Among the data in the supplement of paper PMC5949888 are growth estimate values, retold here.

Most values lie at the floor of the assay. Slopes are relative: functional sequences can read slightly below zero.

For this series, the system named is Saccharomyces cerevisiae PS128 hsf1 delta, HSF1(1-493) fusion. Briefly: growth estimate (transactivation domain function in HSF1 fusion, heat-shock survival) (a.u. (slope of normalised read count over time)); higher = stronger growth at 37°C, i.e. more transactivation activity. The settings on record: library: random library.
For VTNTAACTRISCPTLFYGVN, the growth estimate is less than -0.25.
As to IVLR, the growth estimate was less than -0.25.
With NWRTHGGDIGATL the figure was less than -0.25; with AAIYRRRSSLRTDAFRLDLA, less than -0.25.
Take VISWVMKNLDPETTNGLAFG: the growth estimate is less than -0.25.
With EGT the figure was less than -0.25; with TPTILLPF, -0.248.
With VLVHFGSTFADASKGARSVV the figure was less than -0.25; with LCSVCPYRFNTFL, less than -0.25.
With LVCWGSPLCCRQIQ the figure was less than -0.25.
As to YTDLSGLSAPV, the growth estimate was less than -0.25.
With GRSFGFWGGSVFRPHSCNYK the figure was less than -0.25; with AGSADGSSLK, less than -0.25.
As for ARQG, the figure is less than -0.25; as for LNLRKDLSRWRTHPAVQFIA, less than -0.25; as for TVTADPCETCLK, less than -0.25.
For FRI, the growth estimate is less than -0.25.
As for RASGSELNLFVYSGRRRSTL, the figure is less than -0.25; as for VVLIGRPLSCGRLSPMSSKP, less than -0.25; as for DRIRYRAAILEIFQKLCPVT, less than -0.25.
With GRLGQQRSLGSTHASPFGPG, the growth estimate was less than -0.25.
With QWRSSVIMFSEVMHSVPQCA the figure was less than -0.25; with FVC, less than -0.25; with RVADSYQIMNRR, less than -0.25.
With ICDACTSISGHDH the figure was less than -0.25; with RFLGIMAIHHATCGPGRGSS, less than -0.25.
As for LESRPSGSPSLVAVMPPLKV, the figure is less than -0.25.
AAAN: the growth estimate was less than -0.25.
With STSECLG the figure was less than -0.25.
As for RETTQRHLIF, the growth estimate was less than -0.25.
GRLEIVTSRADRCIIAL: the growth estimate was less than -0.25.
Regarding ISGRGVSILGVGLARMLPAV, the growth estimate is less than -0.25.
As to LWTVGKNWYGQLVRGGSRGA, the growth estimate is less than -0.25.
As for ATGVATLSTGAIGRGSAIAA, the figure is less than -0.25.
As for SLRLCGLRDFMPHRS, the figure is less than -0.25; as for ISSEEANSKILNHVLDTAVG, less than -0.25; as for KTSVCTVSICRRAVLVVTYA, less than -0.25.
With RSWIQWNDEGSI the figure was -0.205; with SAVVPRVGGDSGARARVLVC, less than -0.25; with APSRIYVTLHVRTRRRFVNR, less than -0.25.
Consider SDYPGQRKSAAGTPLWIVGW, for which the growth estimate is less than -0.25.
With QWQSGAGGSSSNIQEAGLTT the figure was less than -0.25; with TFRIGQTTGLFARPVGLMSV, less than -0.25; with SAIGVVVQGFAHTSVLIHPP, less than -0.25.
With DLTYGNNSLPKVEYVPCR the figure was less than -0.25; with SWVVRRPPTRAERVDPSEYS, less than -0.25.
As to FIYPTVFKGPSLTER, the growth estimate is less than -0.25.
With PCTVQGR the figure was less than -0.25; with RPSVGKPCTRWPLKDPSQRL, 0.275.
As for YPRWYLEILTRWLFAVRTPV, the figure is less than -0.25.
With SLYQLIVGGLGSTDKLYGSY the figure was less than -0.25.
Take RVAYRARDA: the growth estimate was less than -0.25.
With EIIGFPRRNSRLFAKLANF the figure was less than -0.25.
As for TNTYKELLDRVSRTTCRVSL, the figure is less than -0.25; as for SSRCLYQRSREMFGISDRVA, less than -0.25; as for FYVIDLRQDSAVYVTAIRSK, less than -0.25.
As for HTPRCD, the figure is less than -0.25; as for YRGRLLNVTYC, less than -0.25.
As to SGCSPQNSRRPAAKDILA, the growth estimate is less than -0.25.
Regarding QLRGLVKQDTSEGKFAEPDA, the growth estimate was less than -0.25.
With KMTIRY the figure was less than -0.25; with LPGCCAPR, less than -0.25; with RANVSYSY, less than -0.25.
In the case of LRPLRLEGMCAAWVTKGYIV, the growth estimate is less than -0.25.
With SSCKGQISLRPKGCGKVKQ the figure was less than -0.25; with RRDDVGISLVVTFGLGCPSD, less than -0.25; with FRRMVR, less than -0.25.
With GVDARVRVQGRGLAVLCQRL the figure was less than -0.25.
For IRD, the growth estimate is less than -0.25.
As for SCRCTTNREPGYLCPKA, the figure is less than -0.25.
As to ASSMGSGQVYFRLGKLG, the growth estimate was less than -0.25.
For WTERWSSDLDSLSV, the growth estimate is less than -0.25.
With NAVMARSELKALKLVSILGS the figure was less than -0.25; with CCVKMQ, less than -0.25; with GVDRVPGTIPVAVRLDGAAN, less than -0.25.
As for EIRSVQYSKCRLSLDSCRTA, the figure is less than -0.25; as for TIGCSVKQTRAGQLADVGCG, less than -0.25.
With NLPEI the figure was less than -0.25; with RSVLRGATYVII, less than -0.25.
